The values that follow are results of earlier work, collected in EP0568635B1, “IMPROVED GLYPHOSATE FORMULATIONS” (MONSANTO COMPANY, priority 1991, dated 1992).

The conditions of this series: at 25°C; cited from earlier work.

Consider `O=C(O)CNCP(=O)(O)O` [glyphosate, N-phosphonomethylglycine], for which the soluble in water entry was “about 1.0 wt. %”.
